Data on 18 compounds can be found in PubChem BioAssay AID493014 (National Center for Advancing Translational Sciences (NCATS), 2011).

The list shows a part of the results. The main result of the screen is listed elsewhere. These columns were measured beside it and carry no call. The list favours compounds with an active or inconclusive main result. Words in brackets tell the shape of the fitted curve; partial curves, single points and poor fits give uncertain potencies.

The nature of this assay: qHTS Assay to Find Inhibitors of Chronic Active B-Cell Receptor Signaling. To be noted: ABC-DLBCL IkBa-CBG/CBR reporter, luminescence ratio (green luciferase fused to IkBa over red control in TMD8 lymphoma cells), 4 h. Put shortly:
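Compounds up to 46 uM were incubated four hours with TMD8 cells whose green CBG68 luciferase is fused to IkappaBalpha; red CBR luminescence normalised the signal, and concentration-effect curves were fitted to fusion, red and ratio data.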
A general note: qHTS replaces the single test concentration by a dilution series.

Where [1] appears, read: measured here: CBR red luminescence, cell number.

Take `Cc1cccc(/N=C2/NC(=O)C(Cc3ccccc3)S2)n1` (centres undefined): the AC50 (in general, the concentration at which the activity in the assay is half-maximal) under setting [1] is 0.447 µM [rising, full curve, poor fit].
`O=C(CN1C(=O)NC(Cc2c[nH]c3ccccc23)C1=O)Nc1cccc(S(=O)(=O)N2CCCCCC2)c1` (centres undefined): the AC50 under setting [1] was 25.9 µM [falling, partial curve, poor fit].
Still for that read-out and setting: to `CC1CCN(C(=O)COC(=O)[C@H](C)NS(=O)(=O)/C=C/c2ccccc2)CC1` belongs 29.1 µM [rising, single point].
On the same count and under the same terms, to `Cc1nc(NC(=O)c2ccccc2)nc2cc3c(cc12)OCO3` belongs 1.16 µM [falling, full curve].
Still for that read-out and setting: to `COc1ccc(NC(=O)C2CCN(S(=O)(=O)c3cccc4nonc34)CC2)cc1OC` belongs 20 µM [falling, partial curve, poor fit]; to `COc1ccc(/C=C/C(=O)O)cc1S(=O)(=O)N1CCCCC1`, 35.5 µM [falling, single point].
On to `O=C(NNC(=O)c1ccccc1OCc1ccccc1)c1ccccc1O`, for which the AC50 under setting [1] was 11.2 µM [falling, partial curve].
On the same count and under the same terms, to `C=CCN=C(NC#N)SCC(=O)NCc1ccccc1` belongs 22.4 µM [rising, single point]; to `CC(=O)Nc1cccc(-c2csc(Nc3cccc(C)n3)n2)c1`, 0.316 µM [falling, full curve, poor fit].
The same measure, in the same setting: the value for `C#CCSc1nsc(SCC#C)c1C#N` was 5.62 µM [rising, partial curve]; that for `COc1ccc(-c2nn(-c3ccccc3)cc2C(=O)NCC(c2cccs2)N2CCOCC2)cc1` (centres undefined) was 2.31 µM [rising, full curve, poor fit].
Still for that read-out and setting: the value for `O=C(O)c1cccc(-c2ccc(/C=c3/sc4nc5ccccc5n4c3=O)o2)c1` was 7.94 µM [falling, partial curve].
With `C/C(=N\NC(=O)c1ccc(F)cc1)c1ccccn1`, the AC50 was 5.62 µM [rising, single point] under setting [1] and 7.08 µM [falling, partial curve] (measured here: IkBa-CBG green luminescence).
As for `COc1cc(NC(=O)CN2CCN(c3ccccc3F)CC2)cc(OC)c1`, the AC50 under setting [1] was 8.2 µM [rising, partial curve].
On the same count and under the same terms, to `CCC(OC(=O)c1cc2sccc2n1C)C(=O)NCc1ccco1` (centres undefined) belongs 25.1 µM [falling, single point]; to `COc1ccc(-c2oc(=O)c3cc(OC)c(OC)cc3c2/C=C/c2ccc(F)cc2)cc1`, 29.1 µM [rising, single point]; to `CSc1cccc(-n2cc(-c3ccc4c(c3)OCO4)[nH]c2=O)c1`, 20 µM [falling, single point].
Same read-out and setting: to `Cc1ccc(C)c(S(=O)(=O)N2C(=S)NC(=O)C2CC(C)C)c1` (centres undefined) belongs 29.1 µM [rising, single point].
